Laboratory results: US20250163183A1
No constants are given. Whether binding was seen depends on the method and setting. Some results given as binding are weak or reduced against the parent protein; the word gives no strength. Blank lines part the entries; values can stand above or below the binder they belong to.

Chains of the proteins cited; added tags and fusions are not shown. Lines headed by an entry give the natural chain unless they say otherwise; changes in a name come on top.
UniProt P04070: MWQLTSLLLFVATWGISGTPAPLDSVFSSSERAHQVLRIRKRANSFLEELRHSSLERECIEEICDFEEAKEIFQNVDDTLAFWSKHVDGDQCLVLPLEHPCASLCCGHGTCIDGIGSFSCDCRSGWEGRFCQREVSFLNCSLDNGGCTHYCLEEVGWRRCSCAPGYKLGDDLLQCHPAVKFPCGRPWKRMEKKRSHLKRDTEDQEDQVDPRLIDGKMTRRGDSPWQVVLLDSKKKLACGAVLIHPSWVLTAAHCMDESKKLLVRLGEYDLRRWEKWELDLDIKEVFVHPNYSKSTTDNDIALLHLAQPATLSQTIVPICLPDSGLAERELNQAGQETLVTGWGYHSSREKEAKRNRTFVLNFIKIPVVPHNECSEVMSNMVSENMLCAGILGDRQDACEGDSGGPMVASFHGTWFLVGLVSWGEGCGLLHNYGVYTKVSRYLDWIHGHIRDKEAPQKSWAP

Experiments:
[1] = molecular target: human activated protein C (APC) (human) (UniProt P04070); experiment: ELISA, APC coated at 10 µg/mL, nanobody 2 µg/mL, HRP-anti-V5, n=3
[2] = molecular target: human activated protein C (APC) (human) (UniProt P04070); experiment: ELISA
[3] = molecular target: human activated protein C (APC) (human) (UniProt P04070); experiment: ELISA screen, APC-coated wells, OD450, n=2 [Continued]
[4] = molecular target: human activated protein C (APC) (human) (UniProt P04070); experiment: BLI sandwich binning
[5] = molecular target: human activated protein C (APC) (human) (UniProt P04070); experiment: ELISA, coated APC
[6] = molecular target: human activated protein C (APC) (human) (UniProt P04070); experiment: ELISA screen, APC-coated wells, OD450, n=2

- binding [1]: binds
- binding [2]: binds
- binding [3]: binds
- binding [4]: binds
- binding [5]: binds
B1: LP7 (SR16983-R3-P2-H08) (VHH, not shown: small tags and cut ends)
VHH: EVQLVESGGGLVQAGGSLRLSCAASGTTFDMNSMGWYRQGPGFKRELVATISMGGDTNYADSVKGRFTISRANAKNTVYMQMNSLKPEDTAVYYCNAERIWPNRRTFWGQGTQVTVSS

- binding [6]: binds
- binding [1]: binds
- binding [2]: binds
- binding [5]: binds
B2: LP8 (SR16983-R3-P3-A04) (VHH, not shown: small tags and cut ends)
VHH: QLQLVESGGGLVEAGGSLRLSCAASGRTFSSGALGWFRQAPGKEREFVATIRWSDERTQYSEFVKGRFTISRDNAKNTVYLQMNNLQPEDTAVYYCRSTVGNLLYWGQGTQVTVSS

- binding [6]: binds
- binding [1]: binds
- binding [2]: binds
- binding [5]: binds
B3: LP2 (SR16983-R2-P3-H10) (VHH, not shown: small tags and cut ends)
VHH: QVQLVESGGGLVQAGGSLRLSCAASGRPISAYTWAWFRQAPGKEREFVAAITSSAGTTYYADSVRGRFTISRDNAENTVYLRMNTLKPEDTAVYYCAADDQGDNWYDHWGQGTQVTVSS

- binding [6]: binds
- binding [1]: binds
- binding [2]: binds
- binding [5]: binds
B4: LP15 (SR16983-R3-P5-H05) (VHH, not shown: small tags and cut ends)
VHH: QLQLVESGGGLVQAGGSLRLSCAASGTTFSFVYMGWYRQAPGNQRDLVARISSDGSTNYADSVKGRFTISGDNAKNTVYLQMNSLKPEDTARYYCFWNGHTNKWGQGTQVTVSS
